For at least one compound, name, drawing or mass did not settle the structure.
Tested on: GBM cells
Experiment: mitochondria co-localization by fluorescence staining (in vitro)
Assay type: cell-based

## C=CC1=C(C)c2cc3[nH]c(cc4nc(cc5[nH]c(cc1n2)c(C)c5CCC(=O)O)C(CCC(=O)O)=C4C)c(C)c3C=C [PpIX, protoporphyrin IX]
  subcellular localization of PpIX: mainly accumulated in the inner mitochondrial
